Measured values as given in the supplement of paper PMC3334620.
Over roughly 33,000 sequences, “E-score (-0.5 to 0.5)” has its median near -0.016; the highest 2% begin near 0.3. The list shows a part of the results.

Each sequence was assayed against T1, Yer184c (UniProt P39961) (assay: PBM E-score (8-mer binding enrichment) (E-score (-0.5 to 0.5)); higher = stronger / more preferred TF binding). Settings: protein concentration: 100 nM; construct: GST-full length.
T1 sequence: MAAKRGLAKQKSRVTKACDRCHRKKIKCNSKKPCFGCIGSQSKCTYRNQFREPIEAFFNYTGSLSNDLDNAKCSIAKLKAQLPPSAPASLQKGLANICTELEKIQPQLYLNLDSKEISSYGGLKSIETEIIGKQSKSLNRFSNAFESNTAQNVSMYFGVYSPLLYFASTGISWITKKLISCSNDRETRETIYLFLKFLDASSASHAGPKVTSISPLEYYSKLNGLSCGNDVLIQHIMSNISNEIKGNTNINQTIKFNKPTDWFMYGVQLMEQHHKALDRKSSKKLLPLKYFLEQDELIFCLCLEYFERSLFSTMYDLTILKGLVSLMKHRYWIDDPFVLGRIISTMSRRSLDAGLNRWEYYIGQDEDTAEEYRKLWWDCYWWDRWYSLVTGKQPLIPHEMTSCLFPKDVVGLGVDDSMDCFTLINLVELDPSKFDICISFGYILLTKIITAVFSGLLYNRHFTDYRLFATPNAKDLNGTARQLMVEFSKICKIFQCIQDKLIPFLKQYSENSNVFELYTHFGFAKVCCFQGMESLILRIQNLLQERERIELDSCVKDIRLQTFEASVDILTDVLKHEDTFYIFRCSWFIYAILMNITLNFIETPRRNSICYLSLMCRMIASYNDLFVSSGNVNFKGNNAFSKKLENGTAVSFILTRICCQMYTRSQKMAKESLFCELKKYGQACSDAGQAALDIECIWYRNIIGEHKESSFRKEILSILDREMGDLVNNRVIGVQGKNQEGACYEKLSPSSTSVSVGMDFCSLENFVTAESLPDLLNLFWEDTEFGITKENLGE
Procedure, shortened: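 Yeast transcription factors carrying a GST tag, as full-length proteins or DNA-binding domains, were produced by PURExpress in vitro transcription/translation. About 100-200 nM protein was applied to universal all-10-mer Agilent arrays, double-stranded by primer extension on fresh or once-stripped slides. Bound protein was detected with fluorescent anti-GST, and scans were normalised with masliner. The Universal PBM Analysis Suite gave each ungapped eight-base word, pooled with its reverse complement, an E-score, a modified Wilcoxon-Mann-Whitney statistic.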

Sequence	PBM E-score
GTAAAGCA	0.0515
ATAAATAC	0.281
GCGGGCGA	0.156
CGAAACGA	0.17
AAGTTTTG	0.0605
CAGTCGGA	-0.00198
AGATCTAC	-0.107
ATAGATGC	-0.102
GACCCGTA	-0.157
CTGAGTGC	-0.147
CTACTAAA	0.0599
CTTGGTTA	0.0322
CATGCCAA	-0.0971
ATGAAAGA	0.0537
AACTCCCG	0.269
TTACTCAA	0.104
ACTCGGCC	0.121
CTTCCCCC	-0.409
ATGCATAC	-0.103
CGACTCCG	0.0498
TGGGCAAA	-0.0623
AAATAATC	0.159
ACGCGTTC	0.0869
AAAGCGCA	-0.14
CTAAAATA	0.0456

A few values from the entries so far:
CTTCCCCC | PBM E-score: -0.409
AAGTTTTG | PBM E-score: 0.0605
GACCCGTA | PBM E-score: -0.157
GTAAAGCA | PBM E-score: 0.0515
ATAGATGC | PBM E-score: -0.102
CATGCCAA | PBM E-score: -0.0971

Additional records.

Sequence	PBM E-score
GAGCCATC	-0.122
CCACGAAA	-0.0399
CCCTCCCG	-0.0304
ACTTGATA	0.0929
CTGCGCCC	-0.272
CGATTGCG	-0.0268
CCTTTACC	-0.142
AGTGGTGA	-0.00186
AGCCATAG	-0.242
ACAAAACA	0.176
CCGGACGC	0.198
ATGTAGTG	-0.172
GTTATAAA	0.0949
CTCACAGA	0.0312
AGTTGCAG	-0.132
GTTAGTAA	0.0718
AAGACTTG	-0.168
ACGAACAT	0.171
CGCTGTAA	0.0542
ACACATTG	0.0319
ATTGACTG	-0.0823
TTATACAA	0.313
ATTTTCGG	0.377
CATCTCCA	-0.107
CCGGGACG	0.117

An excerpt of these results, as comma-separated lines.
Sequence,PBM E-score
GCGGGCGA,0.156
CCGGACGC,0.198

More entries

Sequence	PBM E-score
ACTCCCAT	-0.153
GGCCTCCC	-0.206
CTTCTGGA	0.104
AGAATTCA	0.066
AGGGCCAG	-0.31
TGCTTCCA	-0.199
ACTGCAGT	-0.0631
TGGGAGAA	-0.135
ATCAGCCG	0.275
ACATCCGC	0.252
CATCCGAC	0.247
ACAGGATG	-0.0427
ACAGGAGA	0.0689
ACTCCCAG	-0.105
GGGATTAA	0.128
ATAAGGAA	-0.0247
GTCATCTA	0.015
AGAAATCT	0.0283
GACATGCC	0.0347
AGCCCTAC	-0.0944
GTGTTGCA	0.0685
CTATTAAC	0.208
CAATAGCG	-0.141
ATCAACAG	0.0658
AGATAGAA	-0.0793

Sequence	PBM E-score
TAAACCCA	-0.0632
CTTATCGA	0.0828
AGCTCCAT	-0.156
GGTATATA	0.0952
CATGAGGC	-0.23
GTCTATAA	0.0811
ACACTATA	0.101
CTCCGTGC	0.121
ACAGGGAC	-0.0341
GTGAGCAA	-0.00836
GCGATGCC	-0.151
CCTAGGAC	-0.247
GAGTCAGC	-0.101
CCCCTCAC	-0.118
GCTTCTGA	0.0583
AGACATGA	-0.164
GGAACTTA	0.157
AAGAGCGT	-0.0919
ATTCACAC	0.0656
GCTACGCA	-0.0296
AAGATAGG	-0.226
AGCATATG	-0.242
AAGGCCCG	-0.093
ATTGGGGC	-0.252
ACAAATCG	0.151

Sequence	PBM E-score
AACCTATG	-0.088
CGGTAAGC	0.106
AGCTTAAA	0.118
CCGCAAGC	-0.131
GTCGCGAC	0.315
CACGTGCA	-0.175
CTTAGCAA	0.0294
ACTGATTC	-0.0185
GAAATTCA	0.171
AGAACATC	0.00399
ACAAAGGC	-0.0429
AATGTGCG	-0.028
AACGTGCC	-0.0425
CTAACTTC	0.191
AGCTTCTG	0.0105
GGCACTGA	-0.0208
GGACCTCA	-0.121
GCTTCAAA	0.0629
ATGAGGGC	-0.167
AACAACAT	0.0992
GCGCTTAC	-0.0145
CACCCGCA	-0.107
CACAGAGC	-0.0983
AGATTTTG	0.174
GACATAAC	0.0217

Sequence	PBM E-score
AGTGTAGG	-0.0339
ACTCAAGT	-0.0658
TGCGGACA	0.124
GGGCTACA	-0.198
CAACGCCC	-0.167
TAAACAAA	0.0719
CGGCTTGA	0.127
CGCTGCTC	-0.224
CCTTAATC	-0.0417
AAATTCGC	0.176
CTACAATC	0.0899
CCGACAGG	0.0751
CAATACAG	-0.0672
ATCGCGTG	0.102
CTTTGGAA	-0.00187
CGGATATA	0.389
AAGGTTAG	-0.196
CGATCAGC	0.0642
AGATCCCG	0.299
GGCCAGTA	-0.11
CAGGGCCC	-0.198
CGTATTTA	0.198
AGGCTACA	-0.2
ACTCTCAA	-0.034
CCTTACCA	-0.138

Sequence	PBM E-score
CCAGCACC	-0.316
ACTTAAAG	-0.102
AATGTTAT	0.184
ACCACCCC	-0.313
CACCTCTA	-0.0197
CTGTTAAC	0.194
GAAACCGC	0.22
AATGTTGG	-0.0323
ATTTAACG	0.239
AAGGGCCT	-0.258
CGTAGCCC	-0.227
ATCGATTA	0.0997
GCACTACA	-0.142
ACGTATCT	-0.217
CCAATGCC	-0.0639
ACTCCTAG	-0.174
ATGACACC	-0.18
TCGGAACA	0.408
GGGGCTGA	-0.303
GAGCGTCC	-0.246
AATGGACG	0.0643
AGAGTCGC	-0.122
CGGTACAC	0.041
GACTGATA	-0.151
AGCTCCGC	0.127

2 neighbouring entries out of the list so far:
Sequence	PBM E-score
ACTCCTAG	-0.174
ATGACACC	-0.18

The list goes on:

Sequence	PBM E-score
AACAAGAC	0.105
ACTAACGC	-0.0148
CTGATGTC	0.106
ACTGAACC	0.197
AACGGCGA	0.299
GGGCATCA	-0.114
TAGTTCCA	0.193
CACTGGGA	-0.181
AATATCTG	0.0878
AATGGTGC	0.0479
AGGGGGGA	-0.379
ATTCTTCA	0.0675
CTATTAAA	0.21
CCTGGCAC	-0.199
AATTAGTG	0.124
GAATCCCA	-0.0522
TCGTTCAA	0.0681
CGGAGTCA	0.0567
AGTATAAC	-0.0238
CAGGGCCG	0.0897
CAACCCTC	-0.174
ATTGCTGC	0.0432
GGTTAACA	0.187
CCCGGCTA	0.206
CAAAAAGC	0.153

Sequence	PBM E-score
CGCGCGGC	0.289
ATCTTAAC	0.114
AACAATTC	0.102
AGGTTTAG	-0.14
ATTGTCCA	0.143
TATCCCGA	0.151
CAGGTCTC	-0.181
ATCATAAC	0.191
GGATCTTA	0.043
CTAGAAGC	-0.192
CCAGTAGA	-0.165
AGCATTCG	-0.114
ACCTTAGA	-0.0545
AGAAGCTG	-0.0592
ACAGATTA	-0.0539
AGGATGCC	-0.0165
AGTAGAAC	-0.0614
ACGCAAAA	0.0726
CCCCTACA	-0.323
AGTTTCAT	0.133
GCAGCATA	-0.141
CCACCGCA	-0.116
TACATTCA	0.0249
TACAGACA	0.13
CCTTCCGA	0.227

Sequence	PBM E-score
GGTTTTAC	-0.0929
CCCGCGCA	0.0139
TGACGACA	0.126
ATCTTGTG	-0.0568
AAGGAAGT	0.19
CATAACCG	0.093
CCCCGGCC	0.0277
ATCCTCAG	0.0632
CGCCTCGA	0.0701
AACAAAGC	0.242
CCGCCGCC	0.0576
AATTGGAG	-0.179
GCAAGCAA	0.0281
CATGCGAC	-0.0765
CAAATTTA	0.119
ACTCGTCC	0.04
GAGCACAA	0.0865
AACGGTAG	-0.118
GCACTGGC	-0.192
ATGCTTAC	-0.216
CTTCGAAG	0.132
GATCGTGC	-0.0697
GAAAAGCA	0.0693
CACCAGAC	-0.00896
AGTGTGGA	0.00846

Sequence	PBM E-score
ATACCCAC	-0.0253
ATTCGACG	0.0394
TATTCAAA	0.288
GACGAAAC	0.121
ACATTCCC	-0.0347
ACAGATGT	-0.0749
GCGCGCGA	0.213
AGTCGACT	0.172
ACTTGGAG	-0.279
AGGTTTGC	0.0145
ACTATGGC	-0.152
GGTGCGCA	0.0342
AAGCGGTA	-0.117
ACGCGAGG	-0.153
CCTCTATC	-0.123
GCTTCACC	-0.00787
CTCATCAG	0.0399
AGGATTTA	0.0332
AGGACCGA	0.0382
CAGCGTGA	-0.138
TCTCCCAA	0.0611
ATGTTTAG	0.117
AGTGTCAT	-0.0666
AAGATAAA	0.197
CAGTTCAC	0.0247

Sequence	PBM E-score
AGAGGCAC	-0.166
CACACAAA	0.071
GTGCGCGA	-0.0661
ATTAACAG	0.0231
ATATTGTG	-0.153
GTCAGCTA	-0.174
GTATGGCA	-0.179
CAGTATCA	-0.191
ATGCCACG	-0.207
CACTTGTA	-0.0668
TAACTGAA	-0.186
TTAGAAAA	0.141
ACTTTTCG	0.192
CTGAGCTA	-0.237
GCAGTGCA	-0.0176
ACCACGGA	0.107
CGCTGATA	-0.0148
ACGGCTGG	0.00884
AGGTACGG	-0.1
ACAGGCGG	-0.00977
CAGAGTAG	-0.183
ATGACATG	-0.178
ACGACAAG	-0.218
GACAGTCC	-0.0645
CTTCGAGA	-0.0739

Sequence	PBM E-score
GTCAAAAA	0.18
AAAGTGAC	-0.0309
CCTAGTCA	-0.369
TAAATATA	0.283
ACTGGCCT	-0.0993
GCTTGGCA	-0.209
CATGTGTC	-0.0846
CCCAGAGA	-0.186
AATATACC	0.0935
ACCATACC	-0.198
ATGAACCA	0.125
ATCAGCAT	0.0011
ACGAGGAG	-0.091
AAGTGGGC	0.0443
AAAAGTTT	0.0149
CGACCTCA	-0.0717
CCCTACGA	-0.206
TGCGAGAA	-0.117
CCTACTAA	-0.0122
ACTTATCG	0.00695
CCGGTTCC	0.256
CGAGCCCG	0.112
CCGTGGAA	0.17
CCTGGCAG	-0.144
CCCTAACC	-0.239

Sequence	PBM E-score
ACTGCAAA	0.0905
TATGCTGA	0.0602
ACTCCTAC	-0.0541
AGACTCGG	-0.0794
CTGCCCAC	-0.3
GCATAAGC	-0.0645
CAACATTA	0.0137
ATACCAAG	0.105
ACCACTCT	-0.199
ACGTCGAC	0.024
AGTCGGTC	-0.0845
AATGTTAC	0.0997
CGGTCTTA	0.112
AGCTTCTC	-0.158
GGTGGCGA	-0.284
CACATACC	-0.0268
GAACTTAC	0.0957
GTCACGAA	0.0687
CGGACAAA	0.353
